Values joined by “and” are separate entries in the source; they are usually repeats but may differ in a detail not shown here. Equal values may be shown once. Where a name gives a salt, the structure may show the parent alone. This is one part of the list. This data set is noisy: repeats of one test often differ as much as different tests do.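 In a drug-repurposing library screen, luminescence reads luciferase driven by eight TEAD-binding elements, stably integrated into human kidney-derived cells. Compounds scoring over five robust Z scores above the plate mean are called hits.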
System: HEK293A TEAD-LUC reporter
Assay: TEAD-luciferase reporter activity (YAP activation), robust Z score vs plate; higher = stronger YAP/TEAD activation
Conditions: 24 h

SMILES	TEAD-luciferase reporter activity (compound concentration: 200 nM)	TEAD-luciferase reporter activity (compound concentration: 2 uM)	TEAD-luciferase reporter activity (compound concentration: 10 uM)
COc1c(OCCCN2CCOCC2)ccc2c1N=C(NC(=O)c1cnc(N)nc1)N1CCN=C21 [Copanlisib hydrochloride]	inactive: -2.13	inactive: -2.06	inactive: -0.137
N[C@@H](Cc1c[nH]c2ccc(O)cc12)C(=O)O [L-5-hydroxytryptophan]	inactive: -0.858	inactive: -0.202	inactive: -1.34
NC(=O)c1cccc(-c2cccc(OC(=O)NC3CCCCC3)c2)c1	inactive: -0.26	inactive: 2.77 and inactive: -0.24	inactive: 2.66
Cc1ncccc1Oc1cc(Sc2ccccn2)cnc1Nc1nc([C@H](O)CO)ns1	inactive: -0.797	inactive: -1.06	inactive: -0.995
C[C@H](Nc1ncnc2[nH]cnc12)c1cc2cccc(Cl)c2c(=O)n1-c1ccccc1	inactive: 0.416	inactive: -1.6	inactive: 0.688
C/C(=C\c1ccc(C(=O)O)s1)c1cc2c(cc1C)C(C)(C)CCC2(C)C	inactive: -0.903	inactive: 1.36	inactive: 2.71
CO/N=C(/C(=O)NC1C(=O)N2C(C(=O)O)=C(COC(N)=O)CSC12)c1ccco1 (centres undefined) [cefuroxime]	inactive: -0.508	inactive: -0.378	active: 6.69
Nc1cc(Cl)c(Sc2ccccc2Cl)c(Cl)c1	inactive: 1.72	inactive: -1.5	inactive: -1.8
CC1(NC2=NS(=O)(=O)c3sc(Cl)cc3N2)CC1	inactive: -2.27	inactive: -0.938	inactive: -0.0693
CCOC(=O)CSCCC1NC(C(=O)O)CS1 (centres undefined) [letosteine]	inactive: 0.578	inactive: -0.558	inactive: 0.556
N=C(N)c1ccc(OCCCOc2ccc(C(=N)N)cc2)cc1	inactive: 0.663	inactive: 1.46	inactive: -0.314
COc1cc2c(cc1OC)[C@@H](Cc1ccc(O)c(Oc3ccc(C[C@H]4c5cc(OC)c(OC)cc5CCN4C)cc3)c1)N(C)CC2 [Dauricine]	inactive: -0.972	inactive: -0.281	inactive: 4.14
Cc1ccc(O)c(C(CCN(C(C)C)C(C)C)c2ccccc2)c1 (centres undefined) [tolterodine]	inactive: -0.256	inactive: 1.46	active: 8.3
O=C(Nc1ccc(F)cc1)N1CCN(c2cccc(C(F)(F)F)c2)CC1	inactive: -0.975	inactive: -2.57	inactive: -2.49
CC(C)(C)c1ccc(S(=O)(=O)Nc2ccc(Cl)cc2C(=O)c2ccccc2)cc1	inactive: -0.0327	inactive: -0.78	inactive: -2.12
CC(Nc1cc(=O)n(C)c(=O)[nH]1)c1ccccc1 (centres undefined)	inactive: -0.62	inactive: -1.25	inactive: -0.753
O=C(CN1C(=O)NC2(CCOc3ccccc32)C1=O)NCc1cccc(Cl)c1 (centres undefined)	inactive: -0.93	inactive: -1.4	inactive: 2.56
COc1ccccc1S(=O)(=O)Nc1cc(C(=O)NC(C)(C)C)ccc1Oc1cc(F)c(CC(=O)O)cc1Cl	inactive: 1.42	inactive: -1.04	inactive: 0.605
Cc1nc(-c2cccnc2)sc1C(=O)Nc1ccccc1-c1cn2c(CN3CCOCC3)csc2n1	–	inactive: -0.759	–
Cc1nc(-c2cccnc2)sc1C(=O)Nc1ccccc1-c1cn2c(CN3CCOCC3)csc2n1 [sirtuin modulator]	inactive: 0.179	–	inactive: -0.188

Limited to TEAD-luciferase reporter activity (compound concentration: 2 uM), for some of the entries so far:
SMILES | TEAD-luciferase reporter activity (compound concentration: 2 uM)
C[C@H](Nc1ncnc2[nH]cnc12)c1cc2cccc(Cl)c2c(=O)n1-c1ccccc1 | inactive: -1.6
C/C(=C\c1ccc(C(=O)O)s1)c1cc2c(cc1C)C(C)(C)CCC2(C)C | inactive: 1.36
CO/N=C(/C(=O)NC1C(=O)N2C(C(=O)O)=C(COC(N)=O)CSC12)c1ccco1 (centres undefined) [cefuroxime] | inactive: -0.378
Nc1cc(Cl)c(Sc2ccccc2Cl)c(Cl)c1 | inactive: -1.5

Next results follow.

SMILES	TEAD-luciferase reporter activity (compound concentration: 200 nM)	TEAD-luciferase reporter activity (compound concentration: 2 uM)	TEAD-luciferase reporter activity (compound concentration: 10 uM)
O=c1ccc2ncc(=O)n3c2n1CC3CN1CCC(NCc2cc3c(cn2)OCCC3)CC1 (centres undefined) [Gepotidacin]	inactive: 0.873	–	inactive: -0.0979
CC(=O)Nc1ccc(OCC(O)CNC(C)C)c(C(C)=O)c1 (centres undefined) [Diacetolol hydrochloride]	inactive: 3.52	inactive: -0.783	inactive: 1.59
C=C(c1ccc(C(=O)O)cc1)c1cc2c(cc1C)C(C)(C)CCC2(C)C [bexarotene, gel]	–	inactive: -1.45	–
C=C(c1ccc(C(=O)O)cc1)c1cc2c(cc1C)C(C)(C)CCC2(C)C [Bexarotene]	inactive: 4.83	–	inactive: 1.16
CC(O)(c1ccncc1)c1nc(-c2ccc(F)cc2)no1 (centres undefined)	–	inactive: -0.341	–
CCc1cc(Nc2nc(-c3ccc(-n4cnc(C)c4)c(F)c3)cs2)c(C)cc1C	inactive: 1.1	inactive: 1.77	inactive: -0.864
CN[C@@H]1[C@@H](O)[C@@H](O[C@H]2[C@H](NC(=O)[C@@H](O)CN)C[C@H](N)C(O[C@H]3O[C@H](CN)[C@@H](O)[C@H](O)[C@H]3O)[C@@H]2O)OC[C@]1(C)O (some centres undefined) [Isepamicin sulfate]	inactive: -0.484	inactive: -1.06	inactive: -0.971
CCN(CC)CCNc1ccc(CNC=O)c2sc3ccc(OC)cc3c(=O)c12	inactive: -1.12	inactive: -2.62	inactive: 0.19
Nc1ncnc(Nc2ccccc2)n1	inactive: -0.747	inactive: 0.905	inactive: -1.26
CS(=O)(=O)c1ccc(C2CC(C(F)(F)F)=NN2c2ccc(F)cc2)cc1 (centres undefined)	inactive: -0.745	inactive: -0.143	inactive: -0.239
O=C(/C=C1\NC(=O)CS1)Nc1ccccc1Cl	inactive: 0.573	inactive: -0.813	inactive: -1.13
NS(=O)(=O)c1ccc(Oc2ccc(NC(=O)N[C@@H]3[C@@H]4COc5c(F)ccc(F)c5[C@@H]43)nc2)cc1	inactive: -0.804	inactive: -0.27	inactive: 2
COCCN(C)CCOc1ccc2[nH]c(-c3cc4ccccc4[nH]c3=O)cc2c1	inactive: -0.488	inactive: 2.53	inactive: 0.405
C/C(=N\NC(=O)c1cccc(S(=O)(=O)N2CCN(C)CC2)c1)c1cc(Cl)ccc1O [Seclidemstat]	inactive: -0.122	–	inactive: -0.647
CCCN(CC1CC1)c1nc(C)nc(Nc2c(Cl)cc(Cl)cc2Cl)c1Cl	inactive: -2.43	inactive: -0.116	inactive: -1.61
NCCCCCC(O)(P(=O)(O)O)P(=O)(O)O [neridronic acid]	inactive: -0.971	–	inactive: 0.982
NC(=O)c1c(NC(=O)Nc2ccc3c(c2)OCO3)sc2c(Cl)c(O)ccc12	inactive: -0.238	inactive: 0.439	inactive: -0.319
O=C(O)CN1C(=O)C(=O)N(Cc2cccc([N+](=O)[O-])c2)C1=O	inactive: -1.17	inactive: -0.635	inactive: -0.898
CCCNS(=O)(=O)Nc1ncnc(OCCOc2ncc(Br)cn2)c1-c1ccc(Br)cc1 [Macitentan]	inactive: -1.16	inactive: 0.0497	inactive: -0.488
O=C(c1n[nH]c2ccccc12)N1CCCN(Cc2ccccc2)CC1	inactive: -0.891	inactive: -0.934	inactive: -0.0753

SMILES	TEAD-luciferase reporter activity (compound concentration: 200 nM)	TEAD-luciferase reporter activity (compound concentration: 2 uM)	TEAD-luciferase reporter activity (compound concentration: 10 uM)
Cn1c(=O)n(CCCCC(C)(C)O)c(=O)c2[nH]cnc21	inactive: -0.961	inactive: 0.0695	inactive: -2.38
CCCSc1nc(N2CCC[C@@H](CC(=O)O)C2)ccc1C(=O)NC1CCCCC1	inactive: 0.983	inactive: -0.119	inactive: -1.85
O=C(NO)c1cnc(N2CCN(S(=O)(=O)c3ccc4ccccc4c3)CC2)nc1	active: 33.4	active: 113	active: 66.8
OCC(S)CS (centres undefined) [Dimercaprol]	inactive: 1.11	inactive: 0.359	inactive: -0.522
COc1ccc(CN2CCC3(CC2)NC(=O)c2ccccc2O3)cc1	active: 8.1	–	inactive: 1.63
CC1(COc2ccc3c(c2)ncn3-c2ccc3cccc(N4CCC(N)CC4)c3n2)COC1 [crenolanib]	–	inactive: 2.47	–
CC1(COc2ccc3c(c2)ncn3-c2ccc3cccc(N4CCC(N)CC4)c3n2)COC1	inactive: -1.7	–	active: 8.38
OC(c1ccccc1)(c1ccccc1)C12CC[N+](CCOCc3ccccc3)(CC1)CC2	–	inactive: 2.45	–
OC(c1ccccc1)(c1ccccc1)C12CC[N+](CCOCc3ccccc3)(CC1)CC2 [Umeclidinium bromide]	inactive: -1.51	inactive: 0.687	inactive: 2
Oc1nc2cc(Cl)ccc2c(O)c1-c1cccc(Oc2ccccc2)c1	inactive: -0.635	inactive: 1.05	inactive: 0.411
N#Cc1cc(NC(=O)C(=O)O)c(Cl)c(NC(=O)C(=O)O)c1 [Lodoxamide]	inactive: 0.249	inactive: -1.5	inactive: -0.609
COc1cc(/C=C/C(=O)N2CCN(CC(=O)N3CCCC3)CC2)cc(OC)c1OC [cinepazide maleate]	inactive: -0.218	inactive: -1.34	inactive: -1.1
CCCn1cnc2c1c(=O)n(CCCCC(C)=O)c(=O)n2C	inactive: 0.452	inactive: -0.933	inactive: -1.36
Cc1c(N(C)C)c(=O)n(-c2ccccc2)n1C	inactive: -1.36	inactive: 1.39	inactive: -1.21
CC(C)(C)c1ccc(CN2CCN(C(c3ccccc3)c3ccc(Cl)cc3)CC2)cc1 (centres undefined) [Buclizine hydrochloride]	inactive: -2.28	inactive: -0.272	inactive: -1.68
CC(=O)Oc1ccccc1C(=O)O	inactive: -1.16	–	inactive: -0.0862
CC(=O)Oc1ccccc1C(=O)O [Aspirin]	–	inactive: -1.6	–
CCCCc1cc2ccccc2c(OCCN(C)C)n1	inactive: 0.736	active: 9.03	active: 8.36
